Article PMC10423259

Sequences of proteins named here, by UniProt entry; tags and fusion partners are left off.
UniProt Q9NYG5: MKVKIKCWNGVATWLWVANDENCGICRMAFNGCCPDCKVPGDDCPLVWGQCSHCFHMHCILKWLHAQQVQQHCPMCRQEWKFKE
UniProt O43524: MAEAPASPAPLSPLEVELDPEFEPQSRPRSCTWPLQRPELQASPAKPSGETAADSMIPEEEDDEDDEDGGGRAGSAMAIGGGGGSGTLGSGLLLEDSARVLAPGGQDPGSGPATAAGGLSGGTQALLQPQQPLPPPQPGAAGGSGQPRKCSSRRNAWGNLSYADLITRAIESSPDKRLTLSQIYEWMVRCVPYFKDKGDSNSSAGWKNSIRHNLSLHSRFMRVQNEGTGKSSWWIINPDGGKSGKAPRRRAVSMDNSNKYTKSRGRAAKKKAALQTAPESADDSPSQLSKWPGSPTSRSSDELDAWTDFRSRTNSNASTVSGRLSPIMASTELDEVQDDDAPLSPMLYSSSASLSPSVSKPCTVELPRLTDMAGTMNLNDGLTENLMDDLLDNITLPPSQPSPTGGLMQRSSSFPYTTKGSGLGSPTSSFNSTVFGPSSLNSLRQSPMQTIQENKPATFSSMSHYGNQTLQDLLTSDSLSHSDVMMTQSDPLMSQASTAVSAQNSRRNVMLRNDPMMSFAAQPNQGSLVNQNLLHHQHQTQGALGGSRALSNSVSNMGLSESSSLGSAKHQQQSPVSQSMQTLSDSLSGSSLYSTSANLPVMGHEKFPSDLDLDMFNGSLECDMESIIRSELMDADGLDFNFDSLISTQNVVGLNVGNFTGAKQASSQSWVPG

Target: ANAPC11 (human (endogenous in T24 and UM-UC-3)) (UniProt Q9NYG5)
Test: affinity purification with mass spectrometry; IP of endogenous ANAPC11 from UM-UC-3 cell lysate on Protein A/G magnetic beads conjugated with antibody, 4 °C overnight; eluate to mass spectrometry

FOXO3 (from UniProt O43524 1-673)
binding: binds

Results are given in words; binding and its absence hold for the method and conditions named. Binding seen in cells or lysates may run through a third protein. Here binding means that the protein was enriched with, or labelled near, the bait; the list need not be complete.
